The source of these data is publication PMC10855381.

Amino acid sequences for entries named in this document (tags omitted). Residues count along the entry.
UniProt Q28178, residues 19-1170: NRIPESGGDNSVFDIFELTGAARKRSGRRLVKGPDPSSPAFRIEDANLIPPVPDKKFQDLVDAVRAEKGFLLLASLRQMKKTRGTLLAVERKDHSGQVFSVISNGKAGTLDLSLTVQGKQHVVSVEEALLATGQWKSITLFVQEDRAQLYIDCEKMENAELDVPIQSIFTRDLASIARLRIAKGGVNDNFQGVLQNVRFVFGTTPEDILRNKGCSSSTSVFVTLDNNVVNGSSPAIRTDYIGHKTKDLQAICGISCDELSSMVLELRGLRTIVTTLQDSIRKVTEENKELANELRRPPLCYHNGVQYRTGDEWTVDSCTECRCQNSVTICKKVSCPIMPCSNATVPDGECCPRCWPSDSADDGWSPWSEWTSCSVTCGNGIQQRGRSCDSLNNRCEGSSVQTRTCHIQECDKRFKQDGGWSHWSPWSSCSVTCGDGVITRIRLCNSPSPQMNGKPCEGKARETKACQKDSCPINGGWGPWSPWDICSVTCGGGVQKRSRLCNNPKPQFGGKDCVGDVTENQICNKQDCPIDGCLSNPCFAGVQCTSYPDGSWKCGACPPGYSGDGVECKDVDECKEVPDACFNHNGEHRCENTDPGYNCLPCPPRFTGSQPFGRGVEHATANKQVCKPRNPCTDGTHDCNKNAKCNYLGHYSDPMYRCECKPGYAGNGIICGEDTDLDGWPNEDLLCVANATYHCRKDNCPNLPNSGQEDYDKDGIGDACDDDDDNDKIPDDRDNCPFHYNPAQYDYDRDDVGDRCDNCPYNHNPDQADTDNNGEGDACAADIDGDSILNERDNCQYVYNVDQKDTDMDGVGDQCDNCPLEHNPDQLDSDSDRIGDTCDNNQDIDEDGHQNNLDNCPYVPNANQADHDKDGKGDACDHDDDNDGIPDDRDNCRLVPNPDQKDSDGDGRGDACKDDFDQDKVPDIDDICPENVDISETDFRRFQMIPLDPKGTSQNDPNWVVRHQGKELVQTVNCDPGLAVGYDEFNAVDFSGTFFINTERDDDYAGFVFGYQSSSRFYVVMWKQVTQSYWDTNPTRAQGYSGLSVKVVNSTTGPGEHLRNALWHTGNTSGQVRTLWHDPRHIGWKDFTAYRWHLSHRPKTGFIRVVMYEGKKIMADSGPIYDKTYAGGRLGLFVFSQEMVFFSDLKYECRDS

No constants are given. Whether binding was seen depends on the method and setting. Binding seen in cells or lysates may run through a third protein. Some entries that bind do so weakly or less than the wild type. Where a sequence is shown, tags or fusion partners need not be part of it.

The target in the assay is T1, V5-tagged PP2A B55α (pcDNA3.1 V5-His PP2A Bα) (UniProt P63151).
T1 sequence: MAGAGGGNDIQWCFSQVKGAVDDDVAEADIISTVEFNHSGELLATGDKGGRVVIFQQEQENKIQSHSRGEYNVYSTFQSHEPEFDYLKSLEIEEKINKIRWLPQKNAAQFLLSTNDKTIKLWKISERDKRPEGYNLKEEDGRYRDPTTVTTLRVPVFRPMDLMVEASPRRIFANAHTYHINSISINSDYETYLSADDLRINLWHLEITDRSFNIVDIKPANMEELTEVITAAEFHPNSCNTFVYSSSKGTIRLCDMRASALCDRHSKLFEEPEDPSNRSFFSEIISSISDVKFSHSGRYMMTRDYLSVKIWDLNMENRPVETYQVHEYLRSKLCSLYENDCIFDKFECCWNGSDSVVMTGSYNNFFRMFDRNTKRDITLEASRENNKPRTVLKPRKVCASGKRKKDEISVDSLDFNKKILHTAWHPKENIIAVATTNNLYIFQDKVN
Description: co-IP; lysates of endothelial cells transfected with pcDNA3.1 V5-His PP2A Bα or B’γ incubated with anti-V5 agarose affinity gel; eluates blotted for V5-tag, TSP1, PP2A A and PP2A C.

For “Thrombospondin-1 (TSP1), endogenous in bovine pulmonary artery endothelial cells (from UniProt Q28178 19-1170)”, the binding entry is given as “binds”.
